For six molecules, binding results are on record in publication PMC7917558.

By UniProt entry, the sequences of proteins in these tests, tags left out. Where a name states a change or a piece, a line headed by the entry shows the natural chain unless it says otherwise.
UniProt Q965S0: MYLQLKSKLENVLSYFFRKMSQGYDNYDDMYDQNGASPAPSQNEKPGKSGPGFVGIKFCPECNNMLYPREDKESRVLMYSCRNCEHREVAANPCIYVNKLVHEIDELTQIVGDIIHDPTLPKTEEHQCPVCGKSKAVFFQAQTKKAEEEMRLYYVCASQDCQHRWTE
UniProt P34703: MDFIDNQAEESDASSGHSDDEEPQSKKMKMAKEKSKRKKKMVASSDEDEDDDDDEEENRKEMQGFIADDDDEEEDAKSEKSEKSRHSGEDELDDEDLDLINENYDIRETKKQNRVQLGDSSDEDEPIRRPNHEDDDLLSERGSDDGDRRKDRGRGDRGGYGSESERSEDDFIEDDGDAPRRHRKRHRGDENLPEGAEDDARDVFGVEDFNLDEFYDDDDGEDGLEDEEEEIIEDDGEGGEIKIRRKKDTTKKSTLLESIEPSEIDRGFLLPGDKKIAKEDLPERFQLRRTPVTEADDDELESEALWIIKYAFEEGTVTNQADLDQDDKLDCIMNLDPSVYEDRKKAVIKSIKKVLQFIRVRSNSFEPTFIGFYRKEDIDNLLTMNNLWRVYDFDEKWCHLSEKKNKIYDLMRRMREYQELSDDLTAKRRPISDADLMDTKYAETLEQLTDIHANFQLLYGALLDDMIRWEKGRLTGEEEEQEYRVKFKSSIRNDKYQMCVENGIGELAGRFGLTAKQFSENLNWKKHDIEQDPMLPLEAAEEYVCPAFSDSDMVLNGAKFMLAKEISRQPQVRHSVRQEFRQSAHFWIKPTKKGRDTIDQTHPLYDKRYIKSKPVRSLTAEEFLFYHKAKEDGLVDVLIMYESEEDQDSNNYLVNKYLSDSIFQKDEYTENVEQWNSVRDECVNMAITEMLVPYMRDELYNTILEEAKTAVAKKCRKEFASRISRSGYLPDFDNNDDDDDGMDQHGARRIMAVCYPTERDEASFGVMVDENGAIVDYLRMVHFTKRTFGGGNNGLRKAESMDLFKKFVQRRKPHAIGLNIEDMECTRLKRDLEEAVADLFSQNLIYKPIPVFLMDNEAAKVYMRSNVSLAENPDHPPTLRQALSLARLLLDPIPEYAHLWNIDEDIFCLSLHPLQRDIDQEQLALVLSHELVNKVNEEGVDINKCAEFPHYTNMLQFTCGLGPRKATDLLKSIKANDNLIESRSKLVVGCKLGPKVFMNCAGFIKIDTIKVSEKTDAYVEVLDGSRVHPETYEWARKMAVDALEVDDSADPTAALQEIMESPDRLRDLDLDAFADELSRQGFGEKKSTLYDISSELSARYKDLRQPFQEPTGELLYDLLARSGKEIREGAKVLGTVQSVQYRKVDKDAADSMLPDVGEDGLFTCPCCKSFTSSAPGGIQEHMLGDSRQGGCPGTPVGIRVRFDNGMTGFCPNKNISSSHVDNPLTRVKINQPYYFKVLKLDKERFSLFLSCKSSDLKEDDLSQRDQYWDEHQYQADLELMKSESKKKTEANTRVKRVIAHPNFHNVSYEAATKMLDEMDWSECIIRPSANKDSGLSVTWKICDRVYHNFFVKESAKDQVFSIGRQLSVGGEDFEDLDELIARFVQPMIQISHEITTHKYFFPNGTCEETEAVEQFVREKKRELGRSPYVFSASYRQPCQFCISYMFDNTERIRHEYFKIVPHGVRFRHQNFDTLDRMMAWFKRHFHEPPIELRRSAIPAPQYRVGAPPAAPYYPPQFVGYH
UniProt O01864: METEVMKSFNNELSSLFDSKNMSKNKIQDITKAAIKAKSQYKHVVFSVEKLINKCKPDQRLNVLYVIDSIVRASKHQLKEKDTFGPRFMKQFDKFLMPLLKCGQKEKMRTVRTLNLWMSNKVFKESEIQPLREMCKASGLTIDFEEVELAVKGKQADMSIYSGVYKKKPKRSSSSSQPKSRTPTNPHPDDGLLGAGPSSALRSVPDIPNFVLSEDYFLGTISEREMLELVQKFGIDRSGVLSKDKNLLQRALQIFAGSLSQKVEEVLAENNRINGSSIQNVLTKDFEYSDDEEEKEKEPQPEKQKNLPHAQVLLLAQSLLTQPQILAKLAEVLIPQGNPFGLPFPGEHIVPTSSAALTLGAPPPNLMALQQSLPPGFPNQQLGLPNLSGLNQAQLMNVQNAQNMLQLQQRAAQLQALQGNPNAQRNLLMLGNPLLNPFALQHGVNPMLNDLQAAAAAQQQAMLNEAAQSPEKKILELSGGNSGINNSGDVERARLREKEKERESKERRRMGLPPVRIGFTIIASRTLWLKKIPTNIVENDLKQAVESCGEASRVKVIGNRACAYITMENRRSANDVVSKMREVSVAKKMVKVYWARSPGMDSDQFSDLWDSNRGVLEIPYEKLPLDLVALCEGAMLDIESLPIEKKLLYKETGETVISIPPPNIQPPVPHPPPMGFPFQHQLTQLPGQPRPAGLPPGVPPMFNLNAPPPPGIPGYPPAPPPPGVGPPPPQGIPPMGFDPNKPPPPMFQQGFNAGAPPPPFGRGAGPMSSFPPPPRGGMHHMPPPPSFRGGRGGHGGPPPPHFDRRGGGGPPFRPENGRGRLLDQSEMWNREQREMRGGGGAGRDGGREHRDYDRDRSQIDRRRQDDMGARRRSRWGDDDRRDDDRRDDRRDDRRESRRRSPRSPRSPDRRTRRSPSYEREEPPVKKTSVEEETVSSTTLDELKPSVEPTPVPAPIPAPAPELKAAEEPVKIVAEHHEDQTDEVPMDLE
UniProt P16356: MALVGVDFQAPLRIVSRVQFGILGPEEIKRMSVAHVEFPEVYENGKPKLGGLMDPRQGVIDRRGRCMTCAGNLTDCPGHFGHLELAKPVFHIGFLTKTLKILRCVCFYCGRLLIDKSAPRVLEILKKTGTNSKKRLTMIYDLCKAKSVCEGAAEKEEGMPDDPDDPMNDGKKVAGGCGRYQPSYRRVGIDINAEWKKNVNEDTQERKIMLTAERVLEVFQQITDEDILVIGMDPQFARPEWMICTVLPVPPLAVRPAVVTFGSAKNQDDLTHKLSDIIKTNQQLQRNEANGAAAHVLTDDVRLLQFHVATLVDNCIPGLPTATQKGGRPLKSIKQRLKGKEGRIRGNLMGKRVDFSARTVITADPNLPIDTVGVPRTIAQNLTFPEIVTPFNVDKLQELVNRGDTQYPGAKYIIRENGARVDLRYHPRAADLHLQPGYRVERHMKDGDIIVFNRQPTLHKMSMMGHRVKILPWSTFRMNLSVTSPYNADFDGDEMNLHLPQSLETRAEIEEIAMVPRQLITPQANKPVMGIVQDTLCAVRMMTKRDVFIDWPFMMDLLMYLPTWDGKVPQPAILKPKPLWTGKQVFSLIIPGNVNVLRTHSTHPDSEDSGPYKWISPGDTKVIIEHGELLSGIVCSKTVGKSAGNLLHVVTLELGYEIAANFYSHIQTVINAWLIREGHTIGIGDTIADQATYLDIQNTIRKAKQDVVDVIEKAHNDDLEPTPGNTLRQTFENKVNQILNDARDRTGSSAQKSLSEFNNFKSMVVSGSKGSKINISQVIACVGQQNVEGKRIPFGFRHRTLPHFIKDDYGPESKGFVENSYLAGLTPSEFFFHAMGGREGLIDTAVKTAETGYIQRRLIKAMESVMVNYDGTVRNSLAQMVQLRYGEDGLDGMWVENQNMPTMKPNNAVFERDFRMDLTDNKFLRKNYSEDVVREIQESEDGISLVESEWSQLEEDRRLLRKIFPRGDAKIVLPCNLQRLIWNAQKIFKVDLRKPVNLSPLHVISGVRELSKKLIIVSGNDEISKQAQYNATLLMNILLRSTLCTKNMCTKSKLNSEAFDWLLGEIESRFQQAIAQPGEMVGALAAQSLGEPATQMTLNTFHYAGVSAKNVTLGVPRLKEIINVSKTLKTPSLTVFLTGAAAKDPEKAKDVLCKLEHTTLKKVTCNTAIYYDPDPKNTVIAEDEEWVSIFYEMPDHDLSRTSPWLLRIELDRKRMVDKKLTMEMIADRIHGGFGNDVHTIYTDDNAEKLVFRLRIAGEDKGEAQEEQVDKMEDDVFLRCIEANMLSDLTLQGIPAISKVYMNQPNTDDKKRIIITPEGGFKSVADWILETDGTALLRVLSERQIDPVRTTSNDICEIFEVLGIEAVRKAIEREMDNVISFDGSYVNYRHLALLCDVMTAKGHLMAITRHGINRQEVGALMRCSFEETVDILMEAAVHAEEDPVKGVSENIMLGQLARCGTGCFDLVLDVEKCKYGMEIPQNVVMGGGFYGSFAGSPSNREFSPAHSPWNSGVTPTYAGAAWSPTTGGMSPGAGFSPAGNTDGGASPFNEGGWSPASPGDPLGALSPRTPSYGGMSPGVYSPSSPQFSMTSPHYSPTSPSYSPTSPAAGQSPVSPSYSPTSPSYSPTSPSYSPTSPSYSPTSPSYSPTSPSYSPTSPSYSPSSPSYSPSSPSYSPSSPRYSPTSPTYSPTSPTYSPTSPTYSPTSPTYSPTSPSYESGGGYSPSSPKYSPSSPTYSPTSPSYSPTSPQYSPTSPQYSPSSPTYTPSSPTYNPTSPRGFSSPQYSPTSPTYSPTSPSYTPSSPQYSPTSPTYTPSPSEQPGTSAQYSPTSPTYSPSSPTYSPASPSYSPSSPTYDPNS
UniProt Q9N5K2: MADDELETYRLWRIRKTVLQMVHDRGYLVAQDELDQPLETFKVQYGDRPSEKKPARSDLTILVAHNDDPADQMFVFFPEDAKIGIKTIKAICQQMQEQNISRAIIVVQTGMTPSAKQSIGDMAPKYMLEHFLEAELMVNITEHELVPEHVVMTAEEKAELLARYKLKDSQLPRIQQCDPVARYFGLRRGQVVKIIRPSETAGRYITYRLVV
UniProt Q21338: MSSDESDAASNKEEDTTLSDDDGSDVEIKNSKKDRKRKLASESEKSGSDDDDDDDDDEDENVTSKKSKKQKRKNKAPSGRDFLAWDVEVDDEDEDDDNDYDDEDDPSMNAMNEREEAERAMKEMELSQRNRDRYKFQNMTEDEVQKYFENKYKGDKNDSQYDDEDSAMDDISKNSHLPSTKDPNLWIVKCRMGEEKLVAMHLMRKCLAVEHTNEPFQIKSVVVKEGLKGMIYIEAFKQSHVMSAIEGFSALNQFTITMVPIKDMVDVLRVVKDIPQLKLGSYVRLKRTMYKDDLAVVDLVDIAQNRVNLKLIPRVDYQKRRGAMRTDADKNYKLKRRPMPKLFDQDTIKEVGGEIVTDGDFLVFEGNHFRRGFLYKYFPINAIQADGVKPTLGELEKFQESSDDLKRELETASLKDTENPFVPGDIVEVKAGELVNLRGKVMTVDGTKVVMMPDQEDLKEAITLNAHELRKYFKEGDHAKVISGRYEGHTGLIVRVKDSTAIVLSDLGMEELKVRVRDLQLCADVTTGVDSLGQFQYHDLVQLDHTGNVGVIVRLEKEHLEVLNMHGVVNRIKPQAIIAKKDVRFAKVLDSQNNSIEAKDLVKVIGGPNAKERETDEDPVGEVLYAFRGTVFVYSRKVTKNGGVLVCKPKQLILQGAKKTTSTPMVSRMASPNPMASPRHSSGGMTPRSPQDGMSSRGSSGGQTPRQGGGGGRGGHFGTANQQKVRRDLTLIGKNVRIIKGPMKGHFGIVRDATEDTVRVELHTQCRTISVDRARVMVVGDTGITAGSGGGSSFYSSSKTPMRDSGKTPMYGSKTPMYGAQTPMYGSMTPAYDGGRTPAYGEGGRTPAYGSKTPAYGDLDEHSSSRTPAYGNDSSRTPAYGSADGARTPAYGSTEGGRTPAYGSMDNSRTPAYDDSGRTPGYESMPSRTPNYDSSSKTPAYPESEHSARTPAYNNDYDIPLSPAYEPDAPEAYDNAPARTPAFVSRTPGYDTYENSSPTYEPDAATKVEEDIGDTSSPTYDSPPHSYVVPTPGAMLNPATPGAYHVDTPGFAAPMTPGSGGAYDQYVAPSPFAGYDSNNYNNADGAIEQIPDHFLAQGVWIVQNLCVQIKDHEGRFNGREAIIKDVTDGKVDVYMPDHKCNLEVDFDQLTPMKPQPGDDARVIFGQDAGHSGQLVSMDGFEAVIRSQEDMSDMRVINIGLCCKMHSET

Sequences and labels used below:
B1: CTR‐9 (protein, UniProt Q03560 1-1150)
chain: MDESIDDVQETRTIAIPLKDSHEDEVIEINCSELPDGEEVLQILEAEEAKLSYWIEVALEYYRQDRVDLFMMILESAGSRAGLEYEGVKQDQMRALDILAAYWMTQGYREKAKDKKSDFFSKATVLFNTADKIAMYEWSHLTVRAWFYLFERDKSTNKYELADQQFNYVVKTNPKNVLPLIGKAVIAFNKKDYKTAIYYFRKAIRQCRHTIADLRVGIGHCFAKMGMMDKAKTAFERAMEIEPYNVSAMCGLGIILLNTYDHDSLKHAVSLFGRSYNLQTDHPVALIHLANHFFFKKEIERAWTLAWHAATYNDCDSIKAEAFYQMGRCRHAQGQFDGAYKYYYQARQANNGEHTLAHYGLGQMYIHRNEIEEAIKCFDTVHKRLPNNTDTMKILGSLYAHVQLNDPAQTAEARQKGRDVLGKYLAVENDDYEACIDLAQLLEATDPKRSLELYENAIDLLVTNESIQPQPEMLNNVGALYMSMKQYEKAEHHFKRAKERLEEQLNTDEGSLLLERRSAPEKSHLLTIRYNLALCLEHLCRTVEAEQMYKDIVKECPGYIDGYLRLGCITRDRHQVYESSLWLKQGVQFDQASPIVWTLIGNLHFAKNEWMPAQKKFEFILSKIFNNKIPDPYSLVALGNVWFEQLLNPSRKKEDEKKYIDRALQMYQKALKLQPKNMYAANGIGCVLAYKRNWNDARDVFSQVRESTSEFYDVWLNIAHVCMEREQWMAAVQMYSSAMKKFRKENDSTLQHYLAKAYYRANMLNEAKEALECAMLDQLDNTQLKFNYAIVLKKSAKEVLRGHKMTSEQVTAAIDDLKFADKIFQYISKNDDRQSSHTGMRISRTICAEEAKNCKDLLTQAKHKLAAAQTQDEEERRLMEKQEKEKIALQNKMIEEARAKEEAEKQKLEDMKNLRLSFIEMTKDVLRLPEIVEEKRRGGGGRKRRNDDGDEFVNDSSDAGNYDGEEGGEDGERRERRKKDKAAKKASRKKRERRDSGGPDSNRRDEKKRKRKEERDRKLQEKLSAKQSAKIKSRAFLSSSESSDDDKPKPAADSSDDEVDPRPPVDEFDSPTRTDSDSDRETTTKKKKKKAVVDSDEGSVSGSGSGSDNDDKPIIGGSDDDDDDKPAGGNSRDSDGSDAPKKKVIESDSD

No constants are given. Whether binding was seen depends on the method and setting. In cells and extracts the contact can be indirect. Here binding means that the protein was enriched with, or labelled near, the bait; the list need not be complete.

The experiment has as its target RPB‐9::OLLAS (C. elegans) (UniProt Q965S0). As to the kind of experiment: affinity purification with mass spectrometry; RPB-9::ollas precipitated from lysate of young adult C. elegans with anti-ollas antibody and Protein A/G magnetic beads, 12 h at 4°C; 25 mM Tris-HCl pH 7.5, 150 mM NaCl, 1.5 mM MgCl2, 0.1% Triton X-100; untagged N2 as control; 4 technical replicates; label-free quantification, Welch's t-test.
EMB‐5 (from UniProt P34703 1-1521): the binding result is reported as “binds”.

In the case of NRD‐1 (from UniProt O01864), the binding entry is given as “binds”. Next, “RPB‐1/AMA‐1 (from UniProt P16356 1-1856)”: “binds”. Next, RPB‐5 (from UniProt Q9N5K2 1-211): “binds”; SPT‐5 (from UniProt Q21338 1-1208): “binds”; B1: “binds”.
